Measurements reported in patent US5229363 (dated 1993).
For part of these data: Some peptides are written in HELM: one residue between dots, names in brackets for other building blocks, links after the first $.

Tests used:
[1] = general procedure: Boc solid-phase peptide synthesis; N-BOC-L-Pro-PAM resin; diisopropylcarbodiimide / HOBt in NMP; settings: whole synthesis
[2] = general procedure: Boc solid-phase peptide synthesis; PAM-Thr resin; diisopropylcarbodiimide / HOBt in NMP; settings: whole synthesis
[3] = general procedure: Boc solid-phase peptide synthesis; N-BOC-L-Pro-PAM resin (0.72 meq/gm); N-BOC-4-benzyloxy-L-Pro-Merrifield resin; PAM-Thr resin; diisopropylcarbodiimide / HOBt in NMP; settings: cyclisation step, on linear precursor
[4] = scale of the general procedure 0.45 meq proline

For Linear Hexapeptide, the crude mass [1] was 290 milligrams, the isolated mass [1] was 160 milligrams and the isolated yield [1, 4] was 36% yield.
Work on crude linear peptide yielded a crude mass [2] of 327 milligrams and a crude yield [2, 4] of 76% yield.
Substance “PEPTIDE1{[OctOBz].[Orn].T.P.[hTyr].T.P}$PEPTIDE1,PEPTIDE1,2:R3-7:R2$$$V2.0” has a cyclisation yield [3] of 54% yield.
